Results published in publication PMC6675128.
Results are given in words; binding and its absence hold for the method and conditions named. In cells and extracts the contact can be indirect. Here binding means that the protein was enriched with, or labelled near, the bait; the list need not be complete. Tags and fused reporters may be left off the sequences shown.

Molecular target: T1, BCDIN3D tagged with a FLAG tag at its C-terminus (human) (UniProt Q7Z5W3)
T1 sequence: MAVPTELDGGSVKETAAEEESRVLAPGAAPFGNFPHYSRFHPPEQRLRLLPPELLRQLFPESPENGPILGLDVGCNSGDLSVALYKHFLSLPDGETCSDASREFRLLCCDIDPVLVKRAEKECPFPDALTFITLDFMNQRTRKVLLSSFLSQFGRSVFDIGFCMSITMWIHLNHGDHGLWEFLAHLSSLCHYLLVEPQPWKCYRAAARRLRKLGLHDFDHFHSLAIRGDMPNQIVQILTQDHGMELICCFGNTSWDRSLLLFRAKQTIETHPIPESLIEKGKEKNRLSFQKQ
Assay: affinity purification with mass spectrometry; anti-FLAG M2 beads on lysate of HeLa-S3-Flp-In-BCDIN3Df cells (20 mM HEPES pH7.5, 150 mM NaCl, 20% glycerol, 0.1% NP40, 1 mM EDTA, 4°C), 3xFLAG peptide elution; bands specific to BCDIN3Df against Control eluates cut out for LC-MS/MS

binding: binds
B1: TRMT5 (enzyme, UniProt Q32P41 1-509)
chain: MVLWILWRPFGFSGRFLKLESHSITESKSLIPVAWTSLTQMLLEAPGIFLLGQRKRFSTMPETETHERETELFSPPSDVRGMTKLDRTAFKKTVNIPVLKVRKEIVSKLMRSLKRAALQRPGIRRVIEDPEDKESRLIMLDPYKIFTHDSFEKAELSVLEQLNVSPQISKYNLELTYEHFKSEEILRAVLPEGQDVTSGFSRIGHIAHLNLRDHQLPFKHLIGQVMIDKNPGITSAVNKINNIDNMYRNFQMEVLSGEQNMMTKVRENNYTYEFDFSKVYWNPRLSTEHSRITELLKPGDVLFDVFAGVGPFAIPVAKKNCTVFANDLNPESHKWLLYNCKLNKVDQKVKVFNLDGKDFLQGPVKEELMQLLGLSKERKPSVHVVMNLPAKAIEFLSAFKWLLDGQPCSSEFLPIVHCYSFSKDANPAEDVRQRAGAVLGISLEACSSVHLVRNVAPNKEMLCITFQIPASVLYKNQTRNPENHEDPPLKRQRTAEAFSDEKTQIVSNT
